# Percent effect of library compounds

The chains behind the UniProt entries cited, without tags or fusion partners. Residues count along the entry.
UniProt A4I591, 1-473: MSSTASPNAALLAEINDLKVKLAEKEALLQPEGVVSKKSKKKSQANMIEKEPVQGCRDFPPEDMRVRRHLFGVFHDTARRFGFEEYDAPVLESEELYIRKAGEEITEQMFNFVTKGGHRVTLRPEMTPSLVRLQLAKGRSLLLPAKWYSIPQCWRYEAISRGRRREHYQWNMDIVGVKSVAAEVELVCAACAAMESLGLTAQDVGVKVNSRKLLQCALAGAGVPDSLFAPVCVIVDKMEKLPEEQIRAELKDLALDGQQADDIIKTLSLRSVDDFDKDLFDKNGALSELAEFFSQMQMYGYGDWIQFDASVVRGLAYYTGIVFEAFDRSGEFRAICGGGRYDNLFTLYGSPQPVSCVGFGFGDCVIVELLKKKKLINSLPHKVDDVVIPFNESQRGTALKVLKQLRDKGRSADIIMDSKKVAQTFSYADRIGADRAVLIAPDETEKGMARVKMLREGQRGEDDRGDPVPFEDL
UniProt P9WFT3, whole entry: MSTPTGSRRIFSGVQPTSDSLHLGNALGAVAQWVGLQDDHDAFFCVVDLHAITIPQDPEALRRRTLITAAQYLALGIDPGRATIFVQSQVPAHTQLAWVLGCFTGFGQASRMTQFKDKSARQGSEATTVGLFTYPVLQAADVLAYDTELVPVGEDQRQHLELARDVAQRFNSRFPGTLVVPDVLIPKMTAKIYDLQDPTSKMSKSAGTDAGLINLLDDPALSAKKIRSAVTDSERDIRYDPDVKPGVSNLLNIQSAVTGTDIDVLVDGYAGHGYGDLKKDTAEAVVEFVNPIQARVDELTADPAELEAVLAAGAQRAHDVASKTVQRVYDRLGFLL

LiHisRS: 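Histidine-tRNA ligase, Leishmania infantum (UniProt A4I591). Enzyme assay of histidyl-tRNA synthetase; the read-out is not stated. Compounds at 30 µM. Higher reads as stronger inhibition (inferred: compounds with an IC50 in retests scored well above the rest). The assay is labelled LdHisRS but filed under L. infantum. About 69,000 compounds were tested under these conditions; 0.6% (about 410) showed 50% or more at least once.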
MtTrpRS: 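Enzyme assay of tryptophanyl-tRNA synthetase; the read-out is not stated. Target: Tryptophan-tRNA ligase, Mycobacterium tuberculosis (UniProt P9WFT3). Concentration: 10 µM. Direction is not recorded; retested compounds ran higher, which suggests that high means inhibition. About 65,000 compounds were tested under these conditions; 0.098% (about 64) showed 50% or more at least once.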

Each number is a percent effect as filed. The controls that fix the scale are not given in the record; negative values are as filed. This is an unselected part of the compounds tested.

| structure | LiHisRS | MtTrpRS |
|---|---|---|
| `CCCN(Cc1cnc2ccccc2n1)Cc1ccccc1OC` | 2.564 | -7.728 |
| `CC(=O)N1CCC2(CC1)CN(C(=O)c1cccc3[nH]ccc13)CCO2` | 5.051 | -6.727 |
| `COc1ccc(C(=O)N2CCCC2c2cnn(C)c2)cn1` (stereo unspecified) | 11.61 | 10.34 |
| `Cc1cc(CN(C)C(=O)NCc2ccco2)no1` | 16 | -4.159 |
| `O=C(NCc1ccc(C(=O)N2CCCC2)cc1)c1cn2c(n1)CNCC2` | 24.73 | 0.5727 |
| `CCC1CN(CCCO)c2ccccc2O1` (stereo unspecified) | 13.49 | 4.854 |
| `O=C(c1ccncc1F)N1CCOC(c2cccc(O)c2)C1` (stereo unspecified) | -1.408 | 4.541 |
| `Cc1cc(C(=O)NCc2ccc(N3CCCC(C(N)=O)C3)cc2)no1` (stereo unspecified) | 17.57 | -2.449 |
| `CC(C)N(Cc1nccn1C)C(=O)c1cnc(O)cn1` | 4.167 | -3.096 |
| `CC(C)c1noc(Cn2ncn3cccc3c2=O)n1` | 13.43 | 0.273 |
| `COc1c(CNCC(O)c2cccc(F)c2)c(C(C)C)nn1C` (stereo unspecified) | 13.33 | -1.798 |
| `Cc1csc(Nc2cc(C3CN(c4ccncn4)C3)nc(C)n2)n1` | 10 | 1.903 |
| `C[C@@H](NC(=O)c1cccn1C)c1c(-c2ccc(Cl)cc2)noc1C(=O)O` | 27.78 | -1.883 |
| `CN(c1ncc(S(N)(=O)=O)s1)C1CCc2ccccc21` (stereo unspecified) | 12.4 | -1.067 |
| `CN(C)C(C(=O)N1CC(Oc2ccccc2F)C1)c1ccc(F)cc1` (stereo unspecified) | 28.36 | 3.003 |
| `Clc1cccc(-c2nc(CNC3CCc4ncnn4C3)co2)c1` (stereo unspecified) | 0 | 11.59 |
| `O=C(c1ccno1)N1CCN2C(=O)N(Cc3ccc(F)cc3)C[C@H]2C1` | 11.11 | 0.07531 |
| `O=C(NCCSCc1ccc(Br)s1)C1CCCN(c2cnccn2)C1` (stereo unspecified) | 13.13 | 3.636 |
| `Cc1nc(CN2CCCC(c3nccs3)C2)cs1` (stereo unspecified) | 20.14 | -1.563 |
| `Cc1ncc(C(=O)N2C[C@H](CO)C[C@H](CN3CCOCC3)C2)c(=O)[nH]1` | 9.677 | 0.859 |
| `NC(=O)c1cncc(N2CCN(Cc3ccc(F)cc3Cl)CC2)n1` | 4.11 | -1.675 |
| `CC1CCN(Cc2c(C(C)C)[nH]c3ncccc23)CC1` | 8.511 | -7.525 |
| `CCN1C(=O)[C@]2(CC[C@@H]3CN(C(=O)NCC(C)C)C[C@@H]32)N=C1C` | 8.333 | -0.2788 |
| `Cc1cc(SCC(N)=O)nc(-c2ccc(F)cc2)n1` | 14.29 | -0.6159 |
| `COc1ncccc1C(=O)N1CC[C@H]2C[C@@H](C)O[C@@H]2C1` | 7.767 | 1.407 |
| `CSc1ncccc1C(=O)N1CCC2(CC1)c1nc[nH]c1CCN2C` | 15.62 | 4.499 |
| `CC(=O)c1cccc(S(=O)(=O)N2CSCC2C(=O)NCC(F)(F)F)c1` (stereo unspecified) | 18.92 | -0.6823 |
| `CCc1n[nH]c(C2CN(Cc3nnc(C4CCC4)o3)CCO2)n1` (stereo unspecified) | 15.25 | -4.814 |
| `c1ccc(-c2nc3c(c(NCCn4cccc4)n2)CCNCC3)nc1` | 12.77 | 2.348 |
| `O=C(NC1CCN(c2ncccn2)CC1)c1sccc1C1CC1` | 9.91 | -2.089 |
| `N#Cc1ccc(C(=O)N2CCn3cc(CN4CCCCC4)nc3C2)cc1` | 6 | -7.662 |
| `CN(C(=O)c1ccn(C)n1)[C@@H]1CCC[C@@H](Oc2ccccc2)[C@@H]1O` | 26.32 | -1.101 |
| `CCN1CCN(C)C2(CCN(Cc3cccc(C)n3)CC2)C1=O` | 9.709 | -5.578 |
| `CC(C)c1cc(Br)ccc1NC(=O)NCC(O)CO` (stereo unspecified) | 12.86 | -3.069 |
| `Cc1cc(C(=O)NCc2ccnc(N3CCN(C)CC3)c2)sc1C` | 18.35 | 12.27 |
| `COCc1ccccc1CNCc1c(C(C)C)nn(C)c1N(C)C` | 14.68 | -2.912 |
| `CCn1ccnc1CN1CCCC1c1c(C)nn(C)c1OC` (stereo unspecified) | 10.45 | 1.729 |
| `CN1CCN(c2ncnc3c2CCN(c2ncc(F)cn2)CC3)CC1` | 5.983 | -3.738 |
| `NC(=O)c1cc(C2CCCN(CCOCC3CC3)C2)n[nH]1` (stereo unspecified) | 13.89 | -7.754 |
| `CCc1cc(=O)[nH]c(SCc2ccccn2)n1` | 23.91 | 5.123 |
| `Cc1cccc(NCc2nc(C)ccc2O)c1` | 14.46 | 52.24 |

5 of the entries, repeated:

| structure | LiHisRS | MtTrpRS |
|---|---|---|
| `O=C(c1ccncc1F)N1CCOC(c2cccc(O)c2)C1` (stereo unspecified) | -1.408 | 4.541 |
| `COc1c(CNCC(O)c2cccc(F)c2)c(C(C)C)nn1C` (stereo unspecified) | 13.33 | -1.798 |
| `CCC1CN(CCCO)c2ccccc2O1` (stereo unspecified) | 13.49 | 4.854 |
| `CC(C)N(Cc1nccn1C)C(=O)c1cnc(O)cn1` | 4.167 | -3.096 |
| `COc1ncccc1C(=O)N1CC[C@H]2C[C@@H](C)O[C@@H]2C1` | 7.767 | 1.407 |

From ChEMBL document CHEMBL3988442, “University of Dundee, Small-Polar-MMV Screening Library” (2021).